Laboratory results taken from patent US20100304462.
Protein sequences can lack the tags named with them.

Assays:
Experiment in all cases: enzyme reaction in vitro
[1] = system: T1, ApyPI (Arcanobacterium pyogenes); settings: cuts N20/N18; frameshift corrected; protein in a lysate after overexpression
T1 sequence (limits assumed): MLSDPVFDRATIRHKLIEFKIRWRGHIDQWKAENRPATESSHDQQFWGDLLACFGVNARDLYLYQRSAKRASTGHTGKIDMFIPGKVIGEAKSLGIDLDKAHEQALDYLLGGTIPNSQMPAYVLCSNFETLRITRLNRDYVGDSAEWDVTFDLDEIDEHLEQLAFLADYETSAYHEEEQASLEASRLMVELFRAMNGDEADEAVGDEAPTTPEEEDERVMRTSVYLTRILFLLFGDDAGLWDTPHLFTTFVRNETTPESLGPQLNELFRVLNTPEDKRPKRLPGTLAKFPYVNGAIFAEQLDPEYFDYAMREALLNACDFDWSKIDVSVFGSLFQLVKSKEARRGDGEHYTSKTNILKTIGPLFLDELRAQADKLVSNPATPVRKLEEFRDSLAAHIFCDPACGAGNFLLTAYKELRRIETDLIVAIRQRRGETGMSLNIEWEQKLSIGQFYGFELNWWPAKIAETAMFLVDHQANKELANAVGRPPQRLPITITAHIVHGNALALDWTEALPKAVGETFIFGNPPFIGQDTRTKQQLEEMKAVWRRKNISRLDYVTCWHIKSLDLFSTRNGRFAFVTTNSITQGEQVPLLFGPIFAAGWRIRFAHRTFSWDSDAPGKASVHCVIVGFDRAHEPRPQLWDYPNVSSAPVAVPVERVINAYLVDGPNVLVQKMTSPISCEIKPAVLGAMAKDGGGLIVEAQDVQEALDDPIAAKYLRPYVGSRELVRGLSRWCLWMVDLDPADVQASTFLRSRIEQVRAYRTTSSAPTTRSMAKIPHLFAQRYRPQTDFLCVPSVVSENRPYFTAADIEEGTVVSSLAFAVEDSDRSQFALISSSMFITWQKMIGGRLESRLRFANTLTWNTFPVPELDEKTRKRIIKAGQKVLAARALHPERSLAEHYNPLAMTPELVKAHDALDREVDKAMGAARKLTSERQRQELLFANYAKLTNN

[2] = system: T2, SpoDI (Silicibacter pomeroyi); settings: cuts N20/N18; protein in a lysate after overexpression
T2 sequence (limits assumed): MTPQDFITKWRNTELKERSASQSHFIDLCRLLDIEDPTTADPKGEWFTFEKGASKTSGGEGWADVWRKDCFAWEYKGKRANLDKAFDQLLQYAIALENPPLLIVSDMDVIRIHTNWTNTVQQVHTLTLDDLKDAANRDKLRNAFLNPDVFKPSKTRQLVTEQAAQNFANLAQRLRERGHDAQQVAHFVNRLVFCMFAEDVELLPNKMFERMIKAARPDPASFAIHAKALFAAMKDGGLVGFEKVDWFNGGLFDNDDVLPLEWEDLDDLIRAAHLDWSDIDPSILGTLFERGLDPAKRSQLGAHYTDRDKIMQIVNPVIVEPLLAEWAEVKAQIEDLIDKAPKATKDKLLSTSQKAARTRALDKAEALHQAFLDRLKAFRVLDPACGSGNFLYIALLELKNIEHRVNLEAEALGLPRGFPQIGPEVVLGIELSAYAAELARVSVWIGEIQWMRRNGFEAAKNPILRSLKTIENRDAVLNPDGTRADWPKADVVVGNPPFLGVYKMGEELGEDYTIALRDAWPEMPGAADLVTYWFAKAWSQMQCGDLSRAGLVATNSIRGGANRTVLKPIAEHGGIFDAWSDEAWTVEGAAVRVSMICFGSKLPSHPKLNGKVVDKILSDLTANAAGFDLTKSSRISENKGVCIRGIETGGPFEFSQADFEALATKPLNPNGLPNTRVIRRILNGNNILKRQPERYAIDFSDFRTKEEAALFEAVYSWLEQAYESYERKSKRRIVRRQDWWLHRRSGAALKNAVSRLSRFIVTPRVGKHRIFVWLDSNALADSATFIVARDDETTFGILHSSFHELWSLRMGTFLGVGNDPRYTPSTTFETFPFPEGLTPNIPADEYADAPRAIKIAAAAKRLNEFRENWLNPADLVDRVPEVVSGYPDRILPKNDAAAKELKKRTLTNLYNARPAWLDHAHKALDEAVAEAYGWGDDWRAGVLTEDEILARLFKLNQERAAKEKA

GauT27I(0G) R790D/E802R = system: T3, GauT27I(0G) R790D/E802R; settings: cuts 19/17; protein in a lysate after overexpression; variant of GauT27I site
T3 sequence (limits assumed): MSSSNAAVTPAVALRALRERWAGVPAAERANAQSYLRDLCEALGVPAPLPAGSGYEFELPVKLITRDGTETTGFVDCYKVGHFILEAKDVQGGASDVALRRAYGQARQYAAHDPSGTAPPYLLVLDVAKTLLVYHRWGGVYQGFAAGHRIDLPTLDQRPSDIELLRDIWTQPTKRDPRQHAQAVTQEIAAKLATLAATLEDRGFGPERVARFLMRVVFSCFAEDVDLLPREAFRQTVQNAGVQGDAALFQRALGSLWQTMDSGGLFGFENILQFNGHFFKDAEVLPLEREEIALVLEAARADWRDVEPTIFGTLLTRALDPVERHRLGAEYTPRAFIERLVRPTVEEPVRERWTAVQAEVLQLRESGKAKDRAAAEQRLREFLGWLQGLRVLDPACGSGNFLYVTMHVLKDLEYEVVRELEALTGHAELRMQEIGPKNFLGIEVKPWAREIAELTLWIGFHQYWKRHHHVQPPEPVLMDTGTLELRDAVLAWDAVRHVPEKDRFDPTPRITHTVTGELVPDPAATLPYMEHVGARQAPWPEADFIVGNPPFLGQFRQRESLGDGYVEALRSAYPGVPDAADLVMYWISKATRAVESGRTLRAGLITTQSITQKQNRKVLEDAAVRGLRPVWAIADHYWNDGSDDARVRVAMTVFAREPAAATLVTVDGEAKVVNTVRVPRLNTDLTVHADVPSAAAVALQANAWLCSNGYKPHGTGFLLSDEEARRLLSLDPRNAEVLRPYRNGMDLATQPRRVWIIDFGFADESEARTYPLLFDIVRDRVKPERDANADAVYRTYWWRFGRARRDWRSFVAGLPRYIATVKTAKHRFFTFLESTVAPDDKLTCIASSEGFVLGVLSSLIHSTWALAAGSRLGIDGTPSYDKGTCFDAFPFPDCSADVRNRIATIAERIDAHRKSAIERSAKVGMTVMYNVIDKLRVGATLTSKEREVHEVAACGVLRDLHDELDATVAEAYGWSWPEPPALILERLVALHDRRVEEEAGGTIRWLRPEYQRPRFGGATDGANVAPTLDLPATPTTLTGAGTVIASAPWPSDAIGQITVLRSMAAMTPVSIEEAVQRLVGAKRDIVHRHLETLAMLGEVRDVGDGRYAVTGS

In the case of ATCGAC (double strand) [ApyPI site], the “activity on this sequence” value [1] was “active”.

In the case of GCGGAAG (double strand) [SpoDI site], the “activity on this sequence” value [2] was “active”.

For “GGCGCAGG (double strand) [GauT27I(0G) site]”, the “activity on this sequence” value (GauT27I(0G) R790D/E802R) was “active”.
